According to the supplement of paper PMC12067093, “Discovery and optimisation of a covalent ligand for TRIM25 and its application to targeted protein ubiquitination” (Chemical Science, 2025):
Some of the results follow.

The chains behind the UniProt entries cited, without tags or fusion partners. Where a name states a change or a piece, a line headed by the entry shows the natural chain unless it says otherwise.
UniProt O14578, whole entry, looked up: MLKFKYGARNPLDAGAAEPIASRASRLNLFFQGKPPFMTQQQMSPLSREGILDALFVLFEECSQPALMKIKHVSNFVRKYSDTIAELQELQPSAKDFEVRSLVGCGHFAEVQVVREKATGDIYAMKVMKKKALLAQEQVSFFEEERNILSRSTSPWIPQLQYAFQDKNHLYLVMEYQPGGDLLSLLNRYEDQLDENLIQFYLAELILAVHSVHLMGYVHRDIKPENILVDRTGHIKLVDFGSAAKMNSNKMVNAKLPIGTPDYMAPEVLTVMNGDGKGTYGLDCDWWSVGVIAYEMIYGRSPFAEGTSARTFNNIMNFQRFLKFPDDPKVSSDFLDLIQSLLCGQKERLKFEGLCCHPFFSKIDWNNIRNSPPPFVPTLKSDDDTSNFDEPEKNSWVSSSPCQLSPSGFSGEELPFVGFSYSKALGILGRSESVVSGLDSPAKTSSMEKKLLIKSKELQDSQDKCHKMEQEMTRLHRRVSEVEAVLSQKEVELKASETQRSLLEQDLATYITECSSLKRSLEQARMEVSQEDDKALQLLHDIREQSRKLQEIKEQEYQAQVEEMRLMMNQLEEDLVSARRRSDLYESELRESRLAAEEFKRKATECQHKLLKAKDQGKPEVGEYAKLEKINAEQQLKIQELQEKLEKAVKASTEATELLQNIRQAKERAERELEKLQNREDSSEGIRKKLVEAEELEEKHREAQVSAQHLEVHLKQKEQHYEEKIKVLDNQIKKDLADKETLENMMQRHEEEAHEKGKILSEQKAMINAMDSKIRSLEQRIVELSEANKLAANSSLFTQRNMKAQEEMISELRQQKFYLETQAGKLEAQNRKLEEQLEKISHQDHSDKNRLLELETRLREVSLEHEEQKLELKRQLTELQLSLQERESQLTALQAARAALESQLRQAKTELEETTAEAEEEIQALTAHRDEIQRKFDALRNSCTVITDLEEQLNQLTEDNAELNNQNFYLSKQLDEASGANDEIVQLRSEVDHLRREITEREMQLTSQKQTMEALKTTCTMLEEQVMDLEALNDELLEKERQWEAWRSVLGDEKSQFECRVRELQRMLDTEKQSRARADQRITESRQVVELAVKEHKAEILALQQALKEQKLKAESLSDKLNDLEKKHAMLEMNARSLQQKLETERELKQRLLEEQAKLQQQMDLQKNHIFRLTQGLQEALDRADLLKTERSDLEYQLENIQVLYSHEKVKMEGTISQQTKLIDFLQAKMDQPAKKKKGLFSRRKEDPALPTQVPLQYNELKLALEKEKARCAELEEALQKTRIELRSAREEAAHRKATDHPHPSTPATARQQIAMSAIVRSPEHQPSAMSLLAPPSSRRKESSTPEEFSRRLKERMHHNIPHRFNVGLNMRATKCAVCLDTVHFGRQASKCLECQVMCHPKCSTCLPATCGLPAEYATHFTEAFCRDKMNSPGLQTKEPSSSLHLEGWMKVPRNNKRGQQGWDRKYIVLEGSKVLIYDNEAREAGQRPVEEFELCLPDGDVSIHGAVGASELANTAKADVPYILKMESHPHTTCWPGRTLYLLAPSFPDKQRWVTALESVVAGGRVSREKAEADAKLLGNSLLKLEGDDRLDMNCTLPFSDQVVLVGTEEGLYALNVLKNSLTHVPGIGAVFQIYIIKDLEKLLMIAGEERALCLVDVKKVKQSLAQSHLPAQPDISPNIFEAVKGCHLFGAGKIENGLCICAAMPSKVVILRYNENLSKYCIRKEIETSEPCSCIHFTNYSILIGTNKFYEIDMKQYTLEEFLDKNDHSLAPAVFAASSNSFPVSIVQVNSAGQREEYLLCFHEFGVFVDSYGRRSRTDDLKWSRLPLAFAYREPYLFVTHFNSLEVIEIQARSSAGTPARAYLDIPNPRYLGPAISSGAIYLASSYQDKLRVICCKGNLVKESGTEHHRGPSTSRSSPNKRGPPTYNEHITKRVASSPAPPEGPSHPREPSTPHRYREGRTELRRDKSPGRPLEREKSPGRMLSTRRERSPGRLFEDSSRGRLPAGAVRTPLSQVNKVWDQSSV
UniProt Q00610: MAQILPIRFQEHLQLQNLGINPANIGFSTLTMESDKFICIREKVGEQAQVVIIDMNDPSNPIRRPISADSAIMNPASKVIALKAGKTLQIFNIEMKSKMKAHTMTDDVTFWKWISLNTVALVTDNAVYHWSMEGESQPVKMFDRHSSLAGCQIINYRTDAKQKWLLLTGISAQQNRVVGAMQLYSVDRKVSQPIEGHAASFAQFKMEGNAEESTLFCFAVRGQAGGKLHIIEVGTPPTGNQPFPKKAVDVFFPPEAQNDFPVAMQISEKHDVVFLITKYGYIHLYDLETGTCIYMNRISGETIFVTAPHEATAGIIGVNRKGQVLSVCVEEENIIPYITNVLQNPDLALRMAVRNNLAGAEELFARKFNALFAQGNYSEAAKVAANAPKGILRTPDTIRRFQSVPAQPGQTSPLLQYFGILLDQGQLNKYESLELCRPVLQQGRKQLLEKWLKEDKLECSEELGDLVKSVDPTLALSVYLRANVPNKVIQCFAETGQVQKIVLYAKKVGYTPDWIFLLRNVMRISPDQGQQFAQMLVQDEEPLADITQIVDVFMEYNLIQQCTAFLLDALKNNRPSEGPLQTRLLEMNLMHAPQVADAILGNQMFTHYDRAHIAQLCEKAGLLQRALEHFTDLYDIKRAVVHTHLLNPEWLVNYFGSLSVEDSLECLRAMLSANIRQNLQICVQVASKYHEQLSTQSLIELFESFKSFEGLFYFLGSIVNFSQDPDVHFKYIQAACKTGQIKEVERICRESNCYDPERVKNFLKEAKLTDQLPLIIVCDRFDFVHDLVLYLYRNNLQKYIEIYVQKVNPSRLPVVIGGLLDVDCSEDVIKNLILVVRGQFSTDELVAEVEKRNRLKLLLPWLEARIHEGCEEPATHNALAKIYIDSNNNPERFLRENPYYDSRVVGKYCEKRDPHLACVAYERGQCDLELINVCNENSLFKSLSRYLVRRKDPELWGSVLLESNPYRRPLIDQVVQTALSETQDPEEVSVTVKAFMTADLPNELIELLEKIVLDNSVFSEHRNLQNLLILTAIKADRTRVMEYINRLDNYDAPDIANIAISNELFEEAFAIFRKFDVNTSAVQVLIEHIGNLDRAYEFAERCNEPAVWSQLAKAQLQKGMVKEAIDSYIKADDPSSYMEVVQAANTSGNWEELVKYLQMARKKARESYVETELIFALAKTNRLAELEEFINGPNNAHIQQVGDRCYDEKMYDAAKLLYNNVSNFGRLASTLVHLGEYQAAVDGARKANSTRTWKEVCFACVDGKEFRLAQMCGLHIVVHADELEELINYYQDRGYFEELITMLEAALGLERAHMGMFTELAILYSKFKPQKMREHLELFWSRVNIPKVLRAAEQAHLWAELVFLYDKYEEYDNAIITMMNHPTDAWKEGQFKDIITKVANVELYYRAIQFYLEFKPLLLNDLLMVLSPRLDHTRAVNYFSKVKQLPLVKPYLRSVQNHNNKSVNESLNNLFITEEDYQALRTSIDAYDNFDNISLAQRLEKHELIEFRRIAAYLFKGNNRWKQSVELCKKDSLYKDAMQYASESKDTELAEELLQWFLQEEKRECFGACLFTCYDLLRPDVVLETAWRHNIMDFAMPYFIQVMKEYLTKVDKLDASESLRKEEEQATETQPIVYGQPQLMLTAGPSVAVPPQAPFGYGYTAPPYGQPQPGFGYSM
UniProt Q9UHD1: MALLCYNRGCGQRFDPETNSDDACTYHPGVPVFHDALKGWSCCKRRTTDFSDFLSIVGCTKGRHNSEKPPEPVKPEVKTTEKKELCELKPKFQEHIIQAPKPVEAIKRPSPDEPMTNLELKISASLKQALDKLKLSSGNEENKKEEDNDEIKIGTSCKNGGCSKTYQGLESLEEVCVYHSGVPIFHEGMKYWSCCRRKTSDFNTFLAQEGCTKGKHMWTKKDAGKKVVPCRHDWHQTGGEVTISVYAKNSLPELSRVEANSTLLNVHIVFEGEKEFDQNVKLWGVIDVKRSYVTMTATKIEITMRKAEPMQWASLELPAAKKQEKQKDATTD
UniProt Q9Y281, whole entry: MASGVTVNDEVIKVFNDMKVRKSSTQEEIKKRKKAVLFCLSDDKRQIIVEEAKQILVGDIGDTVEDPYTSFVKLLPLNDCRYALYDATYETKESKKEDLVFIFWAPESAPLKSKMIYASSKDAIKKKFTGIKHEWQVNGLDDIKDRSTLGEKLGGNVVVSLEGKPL
UniProt Q13112, whole entry, looked up: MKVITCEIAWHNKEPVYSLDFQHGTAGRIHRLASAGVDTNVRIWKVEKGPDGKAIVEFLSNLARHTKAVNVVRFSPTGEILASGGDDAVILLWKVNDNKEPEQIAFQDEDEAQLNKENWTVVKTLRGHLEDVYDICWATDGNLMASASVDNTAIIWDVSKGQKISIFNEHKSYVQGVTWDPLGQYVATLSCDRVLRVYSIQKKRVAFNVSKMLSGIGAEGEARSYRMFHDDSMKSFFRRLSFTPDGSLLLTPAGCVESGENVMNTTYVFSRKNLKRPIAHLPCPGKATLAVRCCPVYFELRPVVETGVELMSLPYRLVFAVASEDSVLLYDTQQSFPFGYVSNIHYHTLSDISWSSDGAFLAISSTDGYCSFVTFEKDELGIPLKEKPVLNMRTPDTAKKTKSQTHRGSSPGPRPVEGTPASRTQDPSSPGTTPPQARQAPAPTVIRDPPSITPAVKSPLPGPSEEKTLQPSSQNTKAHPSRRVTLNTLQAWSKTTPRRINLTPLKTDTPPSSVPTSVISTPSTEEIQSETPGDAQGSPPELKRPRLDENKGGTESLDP
UniProt Q9P2E5: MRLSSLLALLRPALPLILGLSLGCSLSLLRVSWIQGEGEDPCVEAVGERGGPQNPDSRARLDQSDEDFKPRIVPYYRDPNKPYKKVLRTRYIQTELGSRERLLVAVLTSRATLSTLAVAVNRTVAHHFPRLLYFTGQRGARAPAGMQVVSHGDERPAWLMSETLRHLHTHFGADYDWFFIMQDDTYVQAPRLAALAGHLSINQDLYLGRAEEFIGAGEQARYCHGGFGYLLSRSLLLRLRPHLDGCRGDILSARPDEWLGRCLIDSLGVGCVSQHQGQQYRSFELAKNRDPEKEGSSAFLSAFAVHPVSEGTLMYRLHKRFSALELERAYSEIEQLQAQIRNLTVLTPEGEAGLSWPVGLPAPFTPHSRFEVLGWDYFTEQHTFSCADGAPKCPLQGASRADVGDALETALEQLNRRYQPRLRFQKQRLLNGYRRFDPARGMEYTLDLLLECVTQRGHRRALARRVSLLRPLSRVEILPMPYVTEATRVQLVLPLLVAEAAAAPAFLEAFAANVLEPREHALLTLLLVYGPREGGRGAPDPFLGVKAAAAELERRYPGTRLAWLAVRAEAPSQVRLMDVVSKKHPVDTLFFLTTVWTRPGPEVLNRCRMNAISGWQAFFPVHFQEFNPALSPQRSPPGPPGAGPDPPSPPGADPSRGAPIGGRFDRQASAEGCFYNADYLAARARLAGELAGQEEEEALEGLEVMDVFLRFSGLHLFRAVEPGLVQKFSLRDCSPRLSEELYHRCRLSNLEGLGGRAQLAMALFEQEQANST
UniProt Q8WUH1: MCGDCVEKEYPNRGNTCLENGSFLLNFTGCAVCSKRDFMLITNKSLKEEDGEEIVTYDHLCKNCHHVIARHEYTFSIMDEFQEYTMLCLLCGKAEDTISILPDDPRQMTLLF
UniProt P23528, whole entry, looked up: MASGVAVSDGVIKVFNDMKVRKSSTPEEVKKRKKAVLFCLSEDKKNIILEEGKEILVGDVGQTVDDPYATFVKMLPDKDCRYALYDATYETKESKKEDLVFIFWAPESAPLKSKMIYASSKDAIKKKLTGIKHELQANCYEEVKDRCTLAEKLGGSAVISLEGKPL
UniProt Q6FI81: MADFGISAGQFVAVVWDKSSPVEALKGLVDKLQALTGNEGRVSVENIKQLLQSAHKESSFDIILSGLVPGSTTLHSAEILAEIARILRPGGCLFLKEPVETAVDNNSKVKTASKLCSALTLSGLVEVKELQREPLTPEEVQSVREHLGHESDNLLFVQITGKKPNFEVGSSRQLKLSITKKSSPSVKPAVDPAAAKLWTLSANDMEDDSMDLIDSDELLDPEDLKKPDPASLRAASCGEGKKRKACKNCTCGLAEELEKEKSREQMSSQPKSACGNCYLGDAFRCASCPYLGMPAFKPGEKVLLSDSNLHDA
UniProt Q9NX63: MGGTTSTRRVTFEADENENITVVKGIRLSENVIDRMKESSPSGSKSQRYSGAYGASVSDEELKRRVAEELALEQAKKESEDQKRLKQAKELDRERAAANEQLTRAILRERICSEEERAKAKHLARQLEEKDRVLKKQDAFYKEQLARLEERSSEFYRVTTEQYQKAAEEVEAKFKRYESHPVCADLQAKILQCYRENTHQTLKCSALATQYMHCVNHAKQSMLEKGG
UniProt P0C7P0: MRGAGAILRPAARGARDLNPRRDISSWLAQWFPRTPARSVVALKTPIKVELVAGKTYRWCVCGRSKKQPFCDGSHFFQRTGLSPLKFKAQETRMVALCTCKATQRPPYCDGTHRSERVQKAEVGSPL

Compound: CC1Cc2ccccc2N1C(=O)C1CCCN(C1)C(=O)CCl (mixture of isomers) [TRIM25 ligand 11 (diastereomer mixture)]
Test: probe-labelled cysteine peptide fold change vs DMSO (competition) (log2 fold change); higher = less target engagement (more negative = stronger competition)
Settings: THP-1, incubation time: 4 h
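Also: competitive chemoproteomic profiling in live THP-1 cells with an iodoacetamide desthiobiotin (IA-DTB) probe, comparing probe-labelled peptide intensities in compound-treated cells against DMSO-treated controls.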

Target | probe-labelled cysteine peptide fold change (10 µM) | probe-labelled cysteine peptide fold change (50 µM)
CIT_O14578_356_FEGLCCHPFFSK (UniProt O14578) | -0.0384 | 0.379
CLTC_Q00610_1528_QSVELCK (UniProt Q00610) | 0.0372 | 0.0186
CHORDC1_Q9UHD1_59_RTTDFSDFLSIVGCTK (UniProt Q9UHD1) | -0.222 | -0.21
CHD2_O14647_500_DYQLEGLNWLAHSWCK (UniProt O14647) | 0.0194 | 0.087
CFL2_Q9Y281_80_LLPLNDCR (UniProt Q9Y281) | -0.033 | 0.153
CHAF1B_Q13112_191_SYVQGVTWDPLGQYVATLSCDR (UniProt Q13112) | 0.272 | 0.00625
CHPF2_Q9P2E5_223_YCHGGFGYLLSR (UniProt Q9P2E5) | -0.0435 | 0.149
CHURC1_Q8WUH1_91_NCHHVIAR (UniProt Q8WUH1) | 0.0607 | 0.145
CFL1_P23528_39_AVLFCLSEDK (UniProt P23528) | -0.0174 | -0.0478
CLTC_Q00610_1573_RECFGACLFTCYDLLRPDVVLETAWR (UniProt Q00610) | 0.32 | 0.0387
CFAP298_P57076_83_CVPSGGAVFKK (UniProt P57076) | -0.323 | -0.293
CHERP_Q8IWX8_190_SPPHCELMAGHLR (UniProt Q8IWX8) | -0.011 | -0.113
CIAPIN1_Q6FI81_116_LCSALTLSGLVEVK (UniProt Q6FI81) | -0.104 | -0.161
CHCHD3_Q9NX63_112_ICSEEER (UniProt Q9NX63) | -0.357 | -0.344
CGAS_Q8N884_446_TAFFHVCTQNPQDSQWDRK (UniProt Q8N884) | -0.0375 | 0.0965
CIAPIN1_Q6FI81_274_SACGNCYLGDAFR (UniProt Q6FI81) | -0.229 | -0.252
CHD8_Q9HCK8_680_NYSYLHCEWATISQLEK (UniProt Q9HCK8) | 0.135 | 0.03
CHD2_O14647_500_KQPAYLGGENLELRDYQLEGLNWLAHSWCK (UniProt O14647) | -0.2 | -0.0236
CLTC_Q00610_824_LPVVIGGLLDVDCSEDVIK (UniProt Q00610) | -0.0769 | 0.0896
CLASP1_Q7Z460_509_CYWGFHSHFSR (UniProt Q7Z460) | 0.286 | 0.256

Not a retest: an excerpt of the list.
Target | probe-labelled cysteine peptide fold change (10 µM) | probe-labelled cysteine peptide fold change (50 µM)
CHPF2_Q9P2E5_223_YCHGGFGYLLSR (UniProt Q9P2E5) | -0.0435 | 0.149
CHURC1_Q8WUH1_91_NCHHVIAR (UniProt Q8WUH1) | 0.0607 | 0.145
CFL1_P23528_39_AVLFCLSEDK (UniProt P23528) | -0.0174 | -0.0478

(list continues)

Target | probe-labelled cysteine peptide fold change (10 µM) | probe-labelled cysteine peptide fold change (50 µM)
CHD2_O14647_365_VSPEDVEYFNCQQELASELNK (UniProt O14647) | 0.063 | -0.0106
CKAP5_Q14008_592_EIVEPELSIEVCEEK (UniProt Q14008) | 0.00603 | -0.152
CIAO3_Q9H6Q4_270_DVDCVLTTGEVFR (UniProt Q9H6Q4) | 0.0144 | -0.227
CHCHD3_Q9NX63_183_YESHPVCADLQAK (UniProt Q9NX63) | 0.143 | -0.0141
CHD1L_Q86WJ1_739_YVSGDVTHPQAGAEDALIVHCVDDSGHWGR (UniProt Q86WJ1) | 0.0148 | -0.245
CHCHD3_Q9NX63_183_RYESHPVCADLQAK (UniProt Q9NX63) | -0.124 | 0.11
CIAPIN1_Q6FI81_92_ILRPGGCLFLK (UniProt Q6FI81) | -0.0606 | 0.00519
CHORDC1_Q9UHD1_211_KTSDFNTFLAQEGCTK (UniProt Q9UHD1) | 0.0224 | -0.115
CIT_O14578_1272_CAELEEALQK (UniProt O14578) | -0.0113 | 0.0758
CHM_P24386_302_RMLMKFLTFCMEYEK (UniProt P24386) | -0.00353 | 0.00272
CLK3_P49761_294_EGHLVCR (UniProt P49761) | 0.303 | 0.267
CLTC_Q00610_1102_CNEPAVWSQLAK (UniProt Q00610) | 0.0548 | -0.00398
CHORDC1_Q9UHD1_176_TYQGLESLEEVCVYHSGVPIFHEGMK (UniProt Q9UHD1) | -0.00431 | -0.024
CISD3_P0C7P0_100_MVALCTCK (UniProt P0C7P0) | 0.0725 | 0.0818
CIT_O14578_1688_GCHLFGAGK (UniProt O14578) | 0.0388 | 0.0596
CIAPIN1_Q6FI81_251_NCTCGLAEELEK (UniProt Q6FI81) | -0.0756 | -0.268
CIP2A_Q8TCG1_752_DLQITCDSLNK (UniProt Q8TCG1) | -0.0398 | 0.0511
CHAF1B_Q13112_283_RPIAHLPCPGK (UniProt Q13112) | -0.0943 | 0.0163
CHEK1_O14757_48_AVDCPENIK (UniProt O14757) | 0.214 | -0.0169
